For test [1], the system named is A549 (Lung Adenocarcinoma). The test is described as follows: Cell viability analysis, lung cancer A549. As to conditions: Homo sapiens, A549, 72 h, read-out: cell viability (survival rate), A549. The class given is cell-based.
The test system of test [2] is HI650 (Lung Adenocarcinoma). Kind of test: Cell viability analysis, lung cancer HI650. The class given is cell-based. The note with it: Homo sapiens, NCI-H1650, 72 h, read-out: cell viability (survival rate), H1650.
In test [3] the test system is TSGH-8301 (Urinary Bladder Carcinoma). Kind of test: Cell viability analysis, bladder cancer TSGH-8301. The format is cell-based. As to conditions: Homo sapiens, 72 h, read-out: cell viability (survival rate), TSGH.
Test [4] has as its system HepG2 (Hepatocellular Carcinoma). Kind of test: Cell viability analysis, hepatic cancer HepG2. As to conditions: Homo sapiens, HepG2, 72 h, read-out: cell viability (survival rate), HepG2. The class given is cell-based.
The test system of test [5] is MKN-45 (Gastric Adenocarcinoma). Kind of test: Cell viability analysis, gastric cancer MKN-45. The class given is cell-based. The note with it: Homo sapiens, MKN-45, 72 h, read-out: cell viability (survival rate), MKN-45.
In test [6] the test system is PC3 (p53−) (Prostate Adenocarcinoma). The test is described as follows: Cell viability analysis, prostate cancer PC3. The format is cell-based. As to conditions: Homo sapiens, 72 h, read-out: cell viability (survival rate), PC3.
Test [7] has as its system HCT116 (p53+) (Colorectal Carcinoma). The test is described as follows: cells. As to conditions: Homo sapiens, HCT-116, 72 h, read-out: cell viability (survival rate), HCT116.
Test [8] concerns MCF7 (Mammary Gland, Adenocarcinoma). The test is described as follows: Cell viability analysis, breast cancer MCF7. The class given is cell-based. As to conditions: Homo sapiens, MCF7, 72 h, read-out: cell viability (survival rate), MCF7.

2 compounds from US10105357B2, “Indication of antibiotic drugs for preparation of cancer inhibition pharmaceutical composition” (LAUNX BIOMEDICAL CO., LTD., priority 2014, dated 2018) can be followed below.

Where a name gives a salt, the structure may show the parent alone.

For the compound `CCC[C@@H]1C[C@@H](C(=O)N[C@@H]([C@H]2O[C@H](SC)[C@H](O)[C@@H](O)[C@H]2O)[C@H](C)Cl)N(C)C1` [Clindamycin], the viability (in general, a read-out of living cells in per cent, often relative to untreated cells) at 10 µM in test [1] worked out at 128%; in test [2], 63.3%; in test [3], 67.2%; in test [4], 96.5%.

Turning to `CCn1cc(C(=O)O)c(=O)c2cc(F)c(N3CCN(C)CC3)cc21` [Pefloxacin mesylate], the viability at 10 µM was 51.6% in test [5]; 73.2% in test [6]; 114% in test [7]; 62.9% in test [8]; 108% in test [4].
